Experimental data taken from patent US20030166891A1.
These are yes or no findings as the source states them, for the method shown. Some entries that bind do so weakly or less than the wild type.

Target: Purified polypeptide encoded by the 1.6 kb fragment of the ECB Bt toxin receptor (fragment set forth in SEQ ID NO: 7), expressed in E. coli from pET-28a-c(+) (Ostrinia nubilalis)
Assay: ligand blot of the purified E. coli-expressed polypeptide

“Cry1A(b) toxin (from UniProt P0A370 29-607) (ligand)” was tested. Which binding did it give?
The binding was “binds”.
